Results taken from patent US8937152B2, “Non-selective somatostatin analogues” (Italfarmaco SpA, priority 2007, dated 2015).
For at least one compound, name, drawing or mass did not settle the structure. *1 amine or outer side, *2 acyl side, *3 side chain or, on linkers, in order; H or OH if unused. Where a SMILES comes first, the peptide text is derived from it. Side-chain parts run from the residue outwards. [ ]: non-standard residue; d: D form. The star is where a group is joined. ξ: configuration not given here. d2Nal = N[C@H](Cc1ccc2ccccc2c1)C(=O)O; X1 = O=C(C(CC=Cc1ccccc1)N[*:1])[*:2]; Ethylenediamine = C(CN[*:2])N[*:1]; d(hPhe) = N[C@H](CCc1ccccc1)C(=O)O; Phg = N[C@H](C(=O)O)c1ccccc1; ξHyp = O=C(O)C1CC(O)CN1; NHCH2CH2NHMe = CNCCN*; CO = O=C([*:1])[*:2]; Bn = c1ccc(C*)cc1

By UniProt entry, the sequences of proteins in these tests, tags left out. Where a name states a change or a piece, a line headed by the entry shows the natural chain unless it says otherwise.
UniProt P35346: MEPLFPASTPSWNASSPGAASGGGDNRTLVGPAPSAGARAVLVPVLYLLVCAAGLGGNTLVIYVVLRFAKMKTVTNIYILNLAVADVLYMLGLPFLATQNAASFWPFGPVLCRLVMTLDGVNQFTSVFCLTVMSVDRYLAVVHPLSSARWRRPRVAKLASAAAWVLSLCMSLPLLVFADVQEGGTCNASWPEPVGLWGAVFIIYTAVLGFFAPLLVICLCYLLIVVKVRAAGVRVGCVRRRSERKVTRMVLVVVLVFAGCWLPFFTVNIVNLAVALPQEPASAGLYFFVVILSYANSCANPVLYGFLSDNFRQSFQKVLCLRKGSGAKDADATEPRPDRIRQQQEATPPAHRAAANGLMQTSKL
UniProt P30872: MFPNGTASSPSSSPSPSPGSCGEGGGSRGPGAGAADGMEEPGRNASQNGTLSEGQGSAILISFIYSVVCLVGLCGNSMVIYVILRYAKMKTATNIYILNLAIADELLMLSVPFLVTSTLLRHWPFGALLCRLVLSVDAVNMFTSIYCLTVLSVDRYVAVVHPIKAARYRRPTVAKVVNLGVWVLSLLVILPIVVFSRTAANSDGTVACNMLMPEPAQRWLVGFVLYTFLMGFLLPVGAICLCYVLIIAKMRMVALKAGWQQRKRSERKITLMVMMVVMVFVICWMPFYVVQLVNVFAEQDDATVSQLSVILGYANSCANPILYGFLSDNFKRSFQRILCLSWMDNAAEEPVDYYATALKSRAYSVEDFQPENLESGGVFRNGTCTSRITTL
UniProt P32745: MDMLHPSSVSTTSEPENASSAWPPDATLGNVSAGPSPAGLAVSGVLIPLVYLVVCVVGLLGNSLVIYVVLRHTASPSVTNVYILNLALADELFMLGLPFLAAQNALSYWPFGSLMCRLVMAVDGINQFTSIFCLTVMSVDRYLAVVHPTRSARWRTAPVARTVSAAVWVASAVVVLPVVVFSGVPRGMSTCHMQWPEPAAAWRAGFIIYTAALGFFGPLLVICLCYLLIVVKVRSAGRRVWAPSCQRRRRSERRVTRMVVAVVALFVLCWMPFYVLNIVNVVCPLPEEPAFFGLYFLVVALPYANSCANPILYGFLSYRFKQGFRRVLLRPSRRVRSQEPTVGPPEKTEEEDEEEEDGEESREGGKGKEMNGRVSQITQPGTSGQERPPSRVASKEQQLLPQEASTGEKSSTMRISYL
UniProt P30874: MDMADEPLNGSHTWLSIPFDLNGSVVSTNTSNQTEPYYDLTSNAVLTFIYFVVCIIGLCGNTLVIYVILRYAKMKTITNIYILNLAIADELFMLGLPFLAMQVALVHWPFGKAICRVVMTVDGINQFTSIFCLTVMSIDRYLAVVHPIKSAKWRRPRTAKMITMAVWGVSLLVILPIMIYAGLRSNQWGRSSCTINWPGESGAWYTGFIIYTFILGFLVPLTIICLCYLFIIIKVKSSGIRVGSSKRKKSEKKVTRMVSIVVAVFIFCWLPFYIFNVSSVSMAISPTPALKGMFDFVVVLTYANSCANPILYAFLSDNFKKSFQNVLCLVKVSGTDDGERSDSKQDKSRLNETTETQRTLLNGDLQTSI

How the values were obtained:
Assay in all cases: Binding assay, displacement of 3-[125I]iodotyrosyl11 Somatostatin-14
Conditions in all cases: recombinant human receptor, cell membranes; 60 min at 25° C.
hSSTR5 = target: T1, hSSTR5 (Homo sapiens, UniProt P35346)
T1 construct: expressed in transfected cells
Experimental: (§1) The binding assays were carried out, as is explained below, by using preparations of recombinant human receptors, hSSTR1, hSSTR2, hSSTR3 and hSSTR5, obtained from cell membranes (for example CHO) transfected according to standard methods.
(§2) The membranes are incubated in duplicate for 60 min. at 25° C. with 3-[125I]iodotyrosyl11Somatostatin-14 (Amersham, IM161, 2000 Ci/mmol) as radioligand and with increasing concentrations of the compound under examination, in 25 mM Hepes (pH 7.4) buffer, containing 5 mM MgCl2, 1 mM CaCl2, 10 μg/ml of Saponin, 0.5% BSA. The incubation is terminated by means of filtration with a Filtermate Harvester (Perkin Elmer) through GF/B filters, which are then washed 6 times with buffer (25 mM Hepes pH 7.4, 5 mM MgCl2, 1 mM CaCl2). The radioactivity of the filters is measured in a TopCount™ or MicroBeta™ reader for 1 min/well after having added the Microscint 20 liquid scintillation (Packard) and incubated for 15 min. in an orbital stirrer. The results are expressed as specific binding percentage of the radio-marked ligand, in the presence of increasing concentrations of the compound under examination. The IC50 values were calculated by using the “GraphPad Prism” software (IC50=concentration of compound necessary for obtaining half of the maximum inhibition, in the competitive binding test described above).

hSSTR1 = target: T2, hSSTR1 (Homo sapiens, UniProt P30872)
T2 construct: expressed in transfected cells
Experimental: as §1, §2

hSSTR3 = target: T3, hSSTR3 (Homo sapiens, UniProt P32745)
T3 construct: expressed in transfected cells
Experimental: as §1, §2

hSSTR2 = target: T4, hSSTR2 (Homo sapiens, UniProt P30874)
T4 construct: expressed in transfected cells
Experimental: as §1, §2

Q: Which IC50 (hSSTR5) does the source give for `NCCCC[C@@H]1NC(=O)[C@@H](Cc2ccc3ccccc3c2)NC(=O)[C@H](Cc2ccccc2)NC(=O)C2CC(OC(=O)NCCN)CN2C(=O)[C@H](Cc2ccccc2)NC(=O)[C@H](Cc2ccc(OCc3ccccc3)cc2)NC1=O` (stereo partly shown) [Example 10, cyclo[Tyr(Bn)-Phe-Pro (4-OCONH(CH2)2NH2)-Phe-(D)Nal-Lys]] (cyclo(Y(Bn)F[ξHyp]([CO-Ethylenediamine])F[d2Nal]K)) here?
A: 0.52 nM

Q: What about the IC50 (hSSTR1) of the same compound?
A: 114 nM

Q: And the IC50 (hSSTR3)?
A: 1.22 nM

Q: What about the IC50 (hSSTR2) of the same compound?
A: 1.7 nM

Q: For `NCCCC[C@@H]1NC(=O)[C@@H](CCc2ccccc2)NC(=O)[C@H](Cc2ccccc2)NC(=O)C2CC(OC(=O)NCCN)CN2C(=O)[C@H](Cc2ccccc2)NC(=O)[C@H](Cc2ccc(OCc3ccccc3)cc2)NC1=O` (stereo partly shown) [Example 11, cyclo[Tyr(Bn)-Phe-Pro(4-OCONH(CH2)2NH2)-Phe-(D)hPhe-Lys]] (cyclo(Y(Bn)F[ξHyp]([CO-Ethylenediamine])F[d(hPhe)]K)), which IC50 (hSSTR5) is on record?
A: 1.18 nM

Q: What about the IC50 (hSSTR1) of the same compound?
A: 26.9 nM

Q: What about the IC50 (hSSTR3) of the same compound?
A: 1.34 nM

Q: And the IC50 (hSSTR2)?
A: 21.3 nM

Q: `CNCCNC(=O)OC1CC2C(=O)N[C@@H](c3ccccc3)C(=O)NC(CC=Cc3ccccc3)C(=O)N[C@@H](CCCCN)C(=O)N[C@@H](Cc3ccc(OCc4ccccc4)cc3)C(=O)N[C@@H](Cc3ccccc3)C(=O)N2C1` (stereo partly shown) [Example 12, cyclo[Tyr(Bn)-Phe-Pro (4-OCONH(CH2)2NHCH3)-Phg-(D) Sty-Lys]] (cyclo(Y(Bn)F[ξHyp]([CO-NHCH2CH2NHMe])[Phg][X1]K)) was tested. Which IC50 (hSSTR5) did it give?
A: 4.86 nM

Q: And the IC50 (hSSTR1)?
A: 39.3 nM

Q: What about the IC50 (hSSTR3) of the same compound?
A: 4.03 nM

Q: And the IC50 (hSSTR2)?
A: 3.3 nM

Q: How did the IC50 (hSSTR5) turn out when `NCCCC[C@@H]1NC(=O)[C@@H](CCc2ccccc2)NC(=O)[C@H](c2ccccc2)NC(=O)C2CC(OC(=O)NCCN)CN2C(=O)[C@H](Cc2ccccc2)NC(=O)[C@H](Cc2ccc(OCc3ccccc3)cc2)NC1=O` (stereo partly shown) [Example 13, cyclo[Tyr(Bn)-Phe-Pro(4-OCONH(CH2)2NH2)-Phg-(D)hPhe-Lys]] (cyclo(Y(Bn)F[ξHyp]([CO-Ethylenediamine])[Phg][d(hPhe)]K)) was run?
A: 0.54 nM

Q: What about the IC50 (hSSTR1) of the same compound?
A: 84.7 nM

Q: And the IC50 (hSSTR3)?
A: 3.02 nM

Q: What about the IC50 (hSSTR2) of the same compound?
A: 31.9 nM
